# In the supplement of paper PMC7238544:
# Where a name gives a salt, the structure may show the parent alone. ± gives the standard deviation of the averaged measurements. This is one part of the list. The data scatter; read single values as rough.
# Key:
# hAMSC donor 1 [1] = experiment: Hoechst total cell count ratio vs vehicle control; higher = more cells (less toxicity)
# hAMSC donor 2 [2] = experiment: as above
# hAMSC donor 1 [3] = experiment: transgenic luciferase activity (RLU/mg protein) fold change vs vehicle control (ratio); higher = more transgene expression
# hAMSC donor 2 [4] = experiment: as above
# hAMSC donor 1 [5] = experiment: transfection efficiency (EGFP+ cells / Hoechst count) fold change vs vehicle control (ratio); hAMSC are human adipose-derived mesenchymal stem cells given an EGFP-luciferase plasmid by lipofection; higher = enhanced transfection
# hAMSC donor 2 [6] = experiment: as above
# [7] = priming compound concentration 0.2 µM
# [8] = priming compound concentration 1.7 µM
# [9] = priming compound concentration 13 µM
Compound,Hoechst total cell count ratio (hAMSC donor 1 [1]; [7]),Hoechst total cell count ratio (hAMSC donor 1 [1]; [8]),Hoechst total cell count ratio (hAMSC donor 1 [1]; [9]),Hoechst total cell count ratio (hAMSC donor 2 [2]; [7]),Hoechst total cell count ratio (hAMSC donor 2 [2]; [8]),Hoechst total cell count ratio (hAMSC donor 2 [2]; [9]),transgenic luciferase activity (hAMSC donor 1 [3]; [7]),transgenic luciferase activity (hAMSC donor 1 [3]; [8]),transgenic luciferase activity (hAMSC donor 2 [4]; [7]),transgenic luciferase activity (hAMSC donor 2 [4]; [8]),transgenic luciferase activity (hAMSC donor 2 [4]; [9]),transfection efficiency (hAMSC donor 1 [5]; [7]),transfection efficiency (hAMSC donor 1 [5]; [8]),transfection efficiency (hAMSC donor 1 [5]; [9]),transfection efficiency (hAMSC donor 2 [6]; [7]),transfection efficiency (hAMSC donor 2 [6]; [8]),transfection efficiency (hAMSC donor 2 [6]; [9]),transgenic luciferase activity (hAMSC donor 1 [3]; [9])
CCC(=O)O[C@]1(C(=O)CCl)[C@@H](C)C[C@H]2[C@@H]3CCC4=CC(=O)C=C[C@]4(C)[C@@]3(F)[C@@H](O)C[C@@]21C [Clobetasol propionate],1.22 ± 0.23,1.09 ± 0.032,1.09 ± 0.14,0.861 ± 0.045,0.909 ± 0.07,1.19 ± 0.19,12.7 ± 0.47,30.9 ± 3.9,4 ± 0.91,4.66 ± 0.42,2.9 ± 0.96,2.36 ± 0.61,2.14 ± 0.31,1.34 ± 0.28,2.92 ± 0.73,3.02 ± 0.05,1.77 ± 0.086,
COC(=O)C1=C(C)NC(C)=C(C(=O)OCCN(C)Cc2ccccc2)C1c1cccc([N+](=O)[O-])c1 (stereo not given) [Nicardipine hydrochloride],1.08 ± 0.15,0.934 ± 0.082,1.27 ± 0.32,1.05 ± 0.083,1.16 ± 0.042,1.02 ± 0.028,,1.34 ± 0.39,0.807 ± 0.076,0.484 ± 0.045,0.62 ± 0.084,1.01 ± 0.19,1.69 ± 0.69,0.96 ± 0.29,1.11 ± 0.1,1.02 ± 0.024,1.21 ± 0.15,0.391 ± 0.1
CC(C)c1ccc2oc3nc(N)c(C(=O)O)cc3c(=O)c2c1 [Amlexanox],1.25 ± 0.23,1.06 ± 0.11,1.25 ± 0.055,1.05 ± 0.13,1.44 ± 0.054,1.17 ± 0.18,,0.471 ± 0.27,0.358 ± 0.14,0.983 ± 0.2,1.18 ± 0.7,0.975 ± 0.09,1.6 ± 0.39,1.23 ± 0.38,1.1 ± 0.12,1.02 ± 0.049,1.12 ± 0.23,0.677 ± 0.42
C#C[C@]1(O)CC[C@H]2[C@@H]3CCC4=CC(=O)CC[C@@H]4[C@H]3CC[C@@]21CC [Levonorgestrel],0.998 ± 0.08,1.04 ± 0.034,1.23 ± 0.07,0.99 ± 0.19,1.03 ± 0.031,1.16 ± 0.096,0.681 ± 0.27,0.692 ± 0.11,1.05 ± 0.12,0.874 ± 0.086,0.744 ± 0.19,1.34 ± 0.44,1.17 ± 0.19,0.802 ± 0.23,1.23 ± 0.34,1.14 ± 0.12,1.25 ± 0.5,
CCN(CC)CCNC(=O)c1ccc(N)cc1 [Procainamide hydrochloride],1.4 ± 0.19,1.15 ± 0.11,1.25 ± 0.14,1.11 ± 0.013,1.15 ± 0.032,1.46 ± 0.2,0.612 ± 0.11,2.18 ± 0.43,0.995 ± 0.061,0.899 ± 0.1,1.33 ± 0.083,1.01 ± 0.028,0.861 ± 0.25,1.29 ± 0.13,1.38 ± 0.15,1.3 ± 0.17,1.02 ± 0.13,
CN(C)[C@@H]1C(O)=C(C(N)=O)C(=O)[C@@]2(O)C(O)=C3C(=O)c4c(O)cccc4[C@@](C)(O)[C@H]3[C@H](O)[C@@H]12 [Oxytetracycline hydrochloride],1.04 ± 0.16,1.28 ± 0.12,1.42 ± 0.095,1.47 ± 0.1,0.996 ± 0.032,1.31 ± 0.18,,0.197 ± 0.11,1.1 ± 0.25,0.752 ± 0.09,0.562 ± 0.096,0.921 ± 0.29,1.48 ± 0.69,0.469 ± 0.051,0.768 ± 0.23,1.01 ± 0.24,0.637 ± 0.12,0.96 ± 0.56
O=C(O)c1cc(=O)c2c(OCC(O)COc3cccc4oc(C(=O)O)cc(=O)c34)cccc2o1 [Cromolyn sodium],1 ± 0.078,1.25 ± 0.023,1.32 ± 0.036,1.28 ± 0.16,1.17 ± 0.18,1.23 ± 0.2,,0.385 ± 0.13,1.03 ± 0.1,0.527 ± 0.063,0.503 ± 0.21,0.906 ± 0.23,1.64 ± 0.31,0.727 ± 0.077,0.989 ± 0.29,1.01 ± 0.033,0.885 ± 0.094,0.777 ± 0.064
C[C@@H]1C[C@H]2[C@@H]3CCC4=CC(=O)C=C[C@]4(C)[C@@]3(F)[C@@H](O)C[C@]2(C)[C@@]1(O)C(=O)CO [Dexamethasone],1.57 ± 0.11,1.34 ± 0.17,1.39 ± 0.13,1.19 ± 0.036,0.9753 ± 0.0025,1.21 ± 0.053,,12.8 ± 2.5,1.62 ± 0.63,3.05 ± 0.5,4.39 ± 0.7,1.34 ± 0.28,2.91 ± 0.13,1.94 ± 0.24,1.14 ± 0.074,1.94 ± 0.19,1.79 ± 0.097,7.15 ± 0.75
COc1cc(NC(C)CCCN)c2ncccc2c1 (stereo not given) [Primaquine diphosphate],1.08 ± 0.044,1.01 ± 0.11,1.02 ± 0.071,1.04 ± 0.12,0.982 ± 0.14,0.886 ± 0.079,0.56 ± 0.3,0.997 ± 0.39,0.647 ± 0.22,1.18 ± 0.23,0.357 ± 0.094,0.839 ± 0.15,1.69 ± 0.89,0.509 ± 0.099,0.992 ± 0.31,1.14 ± 0.096,0.853 ± 0.14,
O=C(O[C@H]1[C@H](Oc2ccccc2COC(=O)C2(O)C=CCCC2=O)O[C@H](CO)[C@@H](O)[C@@H]1O)c1ccccc1 (stereo not given in full) [Tremulacin],1.51 ± 0.15,1.26 ± 0.16,1.17 ± 0.1,1.16 ± 0.17,1.23 ± 0.022,1.26 ± 0.12,,0.907 ± 0.3,0.506 ± 0.11,0.757 ± 0.036,0.896 ± 0.24,0.987 ± 0.32,1.22 ± 0.26,1.56 ± 0.087,0.835 ± 0.23,0.992 ± 0.073,0.909 ± 0.25,0.671 ± 0.11
COc1ccccc1OCC(O)COC(N)=O (stereo not given) [Methocarbamol],1.35 ± 0.38,1.08 ± 0.035,1.48 ± 0.22,1.12 ± 0.053,1.15 ± 0.022,1.44 ± 0.14,,0.845 ± 0.1,1.01 ± 0.15,0.521 ± 0.12,0.519 ± 0.051,1.03 ± 0.29,1.34 ± 0.3,0.903 ± 0.15,0.755 ± 0.084,1.06 ± 0.12,0.824 ± 0.033,0.357 ± 0.061
CO/N=C(\C(=O)N[C@@H]1C(=O)N2C(C(=O)O)=C(COC(C)=O)CS[C@H]12)c1csc(N)n1 [Cefotaxime sodium],1.01 ± 0.087,1.24 ± 0.12,1.31 ± 0.18,1.33 ± 0.15,1.28 ± 0.053,1.46 ± 0.11,,0.418 ± 0.19,0.951 ± 0.15,1.13 ± 0.05,0.675 ± 0.2,1.17 ± 0.37,1.36 ± 0.44,0.596 ± 0.17,0.931 ± 0.083,1.03 ± 0.17,1.18 ± 0.18,1.87 ± 0.87
CCn1cc(C(=O)O)c(=O)c2ccc(C)nc21 [Nalidixic acid],0.97 ± 0.17,0.948 ± 0.14,1.09 ± 0.27,1.06 ± 0.057,1.06 ± 0.2,1.29 ± 0.16,0.769 ± 0.59,1.24 ± 0.24,,1.05 ± 0.085,0.571 ± 0.12,0.935 ± 0.12,1.49 ± 0.53,0.914 ± 0.11,1.15 ± 0.41,1.23 ± 0.061,0.924 ± 0.034,

# Copied from the entries so far for reference:
Compound,Hoechst total cell count ratio (hAMSC donor 1 [1]; [7]),Hoechst total cell count ratio (hAMSC donor 1 [1]; [8]),Hoechst total cell count ratio (hAMSC donor 1 [1]; [9]),Hoechst total cell count ratio (hAMSC donor 2 [2]; [7]),Hoechst total cell count ratio (hAMSC donor 2 [2]; [8]),Hoechst total cell count ratio (hAMSC donor 2 [2]; [9]),transgenic luciferase activity (hAMSC donor 1 [3]; [7]),transgenic luciferase activity (hAMSC donor 1 [3]; [8]),transgenic luciferase activity (hAMSC donor 2 [4]; [7]),transgenic luciferase activity (hAMSC donor 2 [4]; [8]),transgenic luciferase activity (hAMSC donor 2 [4]; [9]),transfection efficiency (hAMSC donor 1 [5]; [7]),transfection efficiency (hAMSC donor 1 [5]; [8]),transfection efficiency (hAMSC donor 1 [5]; [9]),transfection efficiency (hAMSC donor 2 [6]; [7]),transfection efficiency (hAMSC donor 2 [6]; [8]),transfection efficiency (hAMSC donor 2 [6]; [9]),transgenic luciferase activity (hAMSC donor 1 [3]; [9])
CC(C)c1ccc2oc3nc(N)c(C(=O)O)cc3c(=O)c2c1 [Amlexanox],1.25 ± 0.23,1.06 ± 0.11,1.25 ± 0.055,1.05 ± 0.13,1.44 ± 0.054,1.17 ± 0.18,,0.471 ± 0.27,0.358 ± 0.14,0.983 ± 0.2,1.18 ± 0.7,0.975 ± 0.09,1.6 ± 0.39,1.23 ± 0.38,1.1 ± 0.12,1.02 ± 0.049,1.12 ± 0.23,0.677 ± 0.42
C#C[C@]1(O)CC[C@H]2[C@@H]3CCC4=CC(=O)CC[C@@H]4[C@H]3CC[C@@]21CC [Levonorgestrel],0.998 ± 0.08,1.04 ± 0.034,1.23 ± 0.07,0.99 ± 0.19,1.03 ± 0.031,1.16 ± 0.096,0.681 ± 0.27,0.692 ± 0.11,1.05 ± 0.12,0.874 ± 0.086,0.744 ± 0.19,1.34 ± 0.44,1.17 ± 0.19,0.802 ± 0.23,1.23 ± 0.34,1.14 ± 0.12,1.25 ± 0.5,
